Residue numbers refer to the chain shown, from its start. In names and notes the source's numbering stands. Results are given in words; binding and its absence hold for the method and conditions named. Some entries that bind do so weakly or less than the wild type. Where a sequence is shown, tags or fusion partners need not be part of it.
What was measured:
[1] = target: Cynomolgus CD39 expressed on HEK cells (cynomolgus); test: flow cytometry on HEK cells expressing cynomolgus CD39
[2] = target: T1, CD39 mutant 6 (K188R, replacement of the residues 190 to 206 by KTPGGS) (human) (UniProt P49961); test: flow cytometry, HEK293T cells transfected with mutant 6
T1 sequence: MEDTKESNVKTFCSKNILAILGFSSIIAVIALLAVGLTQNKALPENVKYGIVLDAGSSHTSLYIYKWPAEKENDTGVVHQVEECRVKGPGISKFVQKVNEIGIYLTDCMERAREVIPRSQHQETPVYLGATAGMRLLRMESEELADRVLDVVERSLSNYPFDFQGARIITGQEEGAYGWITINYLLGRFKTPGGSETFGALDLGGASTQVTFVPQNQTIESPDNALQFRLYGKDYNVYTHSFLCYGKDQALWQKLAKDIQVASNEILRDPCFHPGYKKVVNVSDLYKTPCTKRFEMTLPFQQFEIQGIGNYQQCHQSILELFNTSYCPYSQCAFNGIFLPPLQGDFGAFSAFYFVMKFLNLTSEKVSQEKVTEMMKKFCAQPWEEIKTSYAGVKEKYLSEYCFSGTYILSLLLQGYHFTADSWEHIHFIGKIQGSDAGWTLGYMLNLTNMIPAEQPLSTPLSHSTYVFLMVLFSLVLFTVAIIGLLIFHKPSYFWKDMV

[3] = target: T2, CD39 mutant 8 (S293A, K297G, K302A, E305A, T307K, Q311A) (human) (UniProt P49961); test: flow cytometry, HEK293T cells transfected with mutant 8
T2 sequence: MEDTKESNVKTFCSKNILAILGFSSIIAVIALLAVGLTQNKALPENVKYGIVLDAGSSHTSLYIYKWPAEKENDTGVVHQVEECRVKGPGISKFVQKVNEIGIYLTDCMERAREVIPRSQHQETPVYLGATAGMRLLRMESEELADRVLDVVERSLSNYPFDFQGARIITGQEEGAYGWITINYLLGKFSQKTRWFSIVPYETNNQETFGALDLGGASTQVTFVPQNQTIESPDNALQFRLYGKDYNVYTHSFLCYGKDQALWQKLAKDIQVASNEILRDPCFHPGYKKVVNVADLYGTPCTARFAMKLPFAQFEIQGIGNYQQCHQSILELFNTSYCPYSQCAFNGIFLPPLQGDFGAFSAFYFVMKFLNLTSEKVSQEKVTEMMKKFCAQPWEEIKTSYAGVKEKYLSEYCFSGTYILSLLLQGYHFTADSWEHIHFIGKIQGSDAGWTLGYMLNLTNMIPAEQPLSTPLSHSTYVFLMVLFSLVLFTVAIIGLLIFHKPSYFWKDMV

[4] = target: T3, CD39 mutant 9 (K287E, K288A, V289A, E314R) (human) (UniProt P49961); test: flow cytometry, HEK293T cells transfected with mutant 9
T3 sequence: T2 sequence with K288E, K289A, V290A, A294S, G298K, A303K, A306E, K308T, A312Q, E315R

[5] = target: T4, CD39 mutant 12 (K389N, Q393K, P394S, E397A) (human) (UniProt P49961); test: flow cytometry, HEK293T cells transfected with mutant 12
T4 sequence: T2 sequence with A294S, G298K, A303K, A306E, K308T, A312Q, K388N, Q392K, P393S, E396A

[6] = target: T5, CD39 mutant 13 (A403P, G404A, K406A, E407A) (human) (UniProt P49961); test: flow cytometry, HEK293T cells transfected with mutant 13
T5 sequence: T2 sequence with A294S, G298K, A303K, A306E, K308T, A312Q, A402P, G403A, K405A, E406A

[7] = target: T6, CD39 mutant 10B (H429A, T431A, A432D, D433A) (human) (UniProt P49961); test: flow cytometry, HEK293T cells transfected with mutant 10B
T6 sequence: T2 sequence with A294S, G298K, A303K, A306E, K308T, A312Q, H428A, T430A, A431D, D432A

[8] = target: T7, Recombinant human CD39 protein (vascular isoform), soluble (human) (UniProt P49961); test: ELISA on coated recombinant human CD39, top panel of FIG. 2 (HUS2 format)
T7 sequence: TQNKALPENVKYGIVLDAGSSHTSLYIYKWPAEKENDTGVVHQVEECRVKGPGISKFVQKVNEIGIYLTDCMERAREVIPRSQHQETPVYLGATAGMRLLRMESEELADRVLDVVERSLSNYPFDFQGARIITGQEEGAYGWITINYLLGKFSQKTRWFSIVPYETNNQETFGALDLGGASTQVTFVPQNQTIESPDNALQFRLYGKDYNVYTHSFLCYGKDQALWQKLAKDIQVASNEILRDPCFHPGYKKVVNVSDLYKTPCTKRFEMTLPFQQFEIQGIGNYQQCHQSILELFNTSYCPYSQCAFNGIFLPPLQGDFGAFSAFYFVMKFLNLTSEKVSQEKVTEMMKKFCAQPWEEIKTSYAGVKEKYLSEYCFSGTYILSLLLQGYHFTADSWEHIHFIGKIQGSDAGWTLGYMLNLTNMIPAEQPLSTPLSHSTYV

[9] = target: T7, Recombinant human CD39 protein (vascular isoform), soluble (human); test: ELISA on coated recombinant human CD39 (RechuCD39), HRP secondary antibody, TMB, OD 450 nm [top panel CHS2-I-391]
[10] = target: T7, Recombinant human CD39 protein (vascular isoform), soluble (human); test: ELISA on coated recombinant human CD39, bottom panel of FIG. 2 (mouse IgG2a format)
[11] = target: T7, Recombinant human CD39 protein (vascular isoform), soluble (human); test: ELISA on coated recombinant human CD39 (RechuCD39), HRP secondary antibody, TMB, OD 450 nm [bottom panel Mouse IgG2a I-391]

Measured: binding

B1: Antibody I-391, Fc silent recombinant chimeric human IgG1 with heavy chain N297Q mutation (antibody, V domains shown)
VH: QIQLVQSGPELKKPGETVKISCKASGYTFRNYGMNWVKQAPGKGLKWMGWINTYTGEPTYADDFKGRFAFSLATSASTAYLQISNLKNEDTATYFCARKAYYGSNYYFDYWGQGTTLTVSS
VL: DIVMTQSHKFMSTSVGDRVSITCKASQDVSTAVAWYQQKPGQSPKLLIYSASYRYTGVPDRFTGSGSGTDFTFTISTVQAEDLAVYYCQQHYTTPPYTFGGGTKLEIKR
binds: [1] | [2] | [3] | [4] | [5] | [6] | [7] | [8] | [9]

B2: Antibody I-391 with Fc domain of mouse IgG2a isotype (MOGA) (antibody, V domains shown)
VH: B1 VH
VL: DIVMTQSHKFMSTSVGDRVSITCKASQDVSTAVAWYQQKPGQSPKLLIYSASYRYTGVPDRFTGSGSGTDFTFTISTVQAEDLAVYYCQQHYTTPPYTFGGGTKLEIK
binds: [10] | [11]

From patent US20190153113A1, “CD39 VASCULAR ISOFORM TARGETING AGENTS” (INNATE PHARMA, priority 2015, published 2019)
